Experimental data published in WO2009104736A1.
Results are given in words; binding and its absence hold for the method and conditions named. Binding can be weak; no strength is given.

Biological target: Aβ deposited in senile plaques of the brain of AβPP transgenic Tg2576 mice
Experiment: immunofluorescence of brain sections of Tg2576 mice given 3.4A10 intraperitoneally; detected with Alexa594 donkey anti-mouse IgG

binding: binds
B1: monoclonal antibody 3.4A10 (antibody of Example 1) (antibody, V domains shown)
VH: EVQLLESGGGLVQPGGSRKLSCAASGFTFSSFGVHWFRQAPEKGLEWVAYISSGSSTIYYADTVKGRFTISRDNPKNTLFLQMASLRSEDTAMYYCAPYGSSPFPYWGQGTLVTVST
VL: ELQLTQSPASLAVSLGQRATISCRASESVDSYGYNFMHWYQQKPGQPPKLLIYLASNLESGVPARFSGSGSRTDFTLTIDPVEADDAATYYCQQNNEDPLTFGAGTKLELKR
